Test results: patent US20170189504A1, “NOVEL PEPTIDES AND COMBINATION OF PEPTIDES FOR USE IN IMMUNOTHERAPY AGAINST VARIOUS CANCERS” (immatics biotechnologies GmbH, priority 2015, published 2017)

Legend:
source genes (mRNA) = experiment: Gene and exon expression of source genes, TCGA tumor samples compared with normal tissue samples (Lonsdale, 2013) (Table 17); set-up: species or system human; conditions: for Target coverage: over-expression category of source gene, BLCA: Bladder urothelial carcinoma (N = 408); for Target coverage: over-expression category of source gene, BRCA: Breast cancer (N = 1104), cutoff more than 2-fold above highest 75% percentile of high and medium risk normal tissue samples; for Target coverage: over-expression category of source gene, CHOL: Cholangiocarcinoma (N = 36); for Target coverage: over-expression category of source gene, READ: Colon and rectal adenocarcinoma (N = 167); for Target coverage: over-expression category of source gene, COAD: Colon and rectal adenocarcinoma (N = 462); for Target coverage: over-expression category of source gene, ESCA: Esophageal cancer (N = 185); for Target coverage: over-expression category of source gene, KICH: Kidney chromophobe (N = 66); for Target coverage: over-expression category of source gene, LGG: Lower grade glioma (N = 534); for Target coverage: over-expression category of source gene, LUAD: Lung adenocarcinoma (N = 517); for Target coverage: over-expression category of source gene, LUSC: Lung squamous cell carcinoma (N = 503); for Target coverage: over-expression category of source gene, DLBC: Lymphoid neoplasm diffuse large B-cell lymphoma (N = 48); for Target coverage: over-expression category of source gene, OV: Ovarian serous cystadenocarcinoma (N = 309); for Target coverage: over-expression category of source gene, PAAD: Pancreatic ductal adenocarcinoma (N = 179); for Target coverage: over-expression category of source gene, KIRP: Papillary kidney carcinoma (N = 291); for Target coverage: over-expression category of source gene, PRAD: Prostate adenocarcinoma (N = 498); for Target coverage: over-expression category of source gene, SKCM: Skin cutaneous melanoma (N = 473); for Target coverage: over-expression category of source gene, STAD: Stomach adenocarcinoma (N = 415); for Target coverage: over-expression category of source gene, UCEC: Uterine corpus endometrial carcinoma (N = 546)
HLA-A*02 = experiment: Identification and relative LC-MS quantitation of HLA-A*02-presented tumor-associated peptides on tissue samples (presentation profiles, Tables 13A, 13B, 15, FIG. 1); set-up: species or system human; key to Presentation score NHL / Presentation score CLL / Presentation score BRCA / Presentation score AML / Presentation score GB / Presentation score NSCLC / Presentation score GBC_CCC / Presentation score UEC / Presentation score MEL / Presentation score OSCAR / Presentation score GC / Presentation score UBC / Presentation score OC / Presentation score RCC / Presentation score CRC / Presentation score PCA / Presentation score HCC / Presentation score PC / Presentation score SCLC: specifically presented on tumors (++++); very highly over-presented on tumors compared to a panel of normal tissues (+++); highly over-presented on tumors compared to a panel of normal tissues (++); over-presented on tumors compared to a panel of normal tissues (+); conditions: for Peptide Presentation on cancer entities: HLA-A*02-binding tumor-associated peptides
[1] = cutoff more than 2-fold above highest 75% percentile of normal tissue samples
[2] = Table 13A, cancer entities on which the peptide was found presented

Substance	Target coverage: over-expression category of source gene, BLCA (source genes (mRNA); [1])	Target coverage: over-expression category of source gene, BRCA (source genes (mRNA))	Target coverage: over-expression category of source gene, CHOL (source genes (mRNA); [1])	Target coverage: over-expression category of source gene, READ (source genes (mRNA); [1])	Target coverage: over-expression category of source gene, COAD (source genes (mRNA); [1])	Target coverage: over-expression category of source gene, ESCA (source genes (mRNA); [1])	Target coverage: over-expression category of source gene, KICH (source genes (mRNA); [1])	Target coverage: over-expression category of source gene, LGG (source genes (mRNA); [1])	Target coverage: over-expression category of source gene, LUAD (source genes (mRNA); [1])	Target coverage: over-expression category of source gene, LUSC (source genes (mRNA); [1])	Target coverage: over-expression category of source gene, DLBC (source genes (mRNA); [1])	Target coverage: over-expression category of source gene, OV (source genes (mRNA); [1])	Target coverage: over-expression category of source gene, PAAD (source genes (mRNA); [1])	Target coverage: over-expression category of source gene, KIRP (source genes (mRNA); [1])	Target coverage: over-expression category of source gene, PRAD (source genes (mRNA); [1])	Target coverage: over-expression category of source gene, SKCM (source genes (mRNA); [1])	Target coverage: over-expression category of source gene, STAD (source genes (mRNA); [1])	Target coverage: over-expression category of source gene, UCEC (source genes (mRNA); [1])	Peptide Presentation on cancer entities (HLA-A*02; [2])	other results
66: peptide found in AACS (gene looked up) (KLIFSVEAV; listed as Homo sapiens) [compound 66]	C (>=5% of tumors above the cutoff, but <20%)	B (>= 20% of tumors above the cutoff, but <50%)	B (>= 20% of tumors above the cutoff, but <50%)	A (>=50% of tumors above the cutoff)	A (>=50% of tumors above the cutoff)	A (>=50% of tumors above the cutoff)	B (>= 20% of tumors above the cutoff, but <50%)	C (>=5% of tumors above the cutoff, but <20%)	B (>= 20% of tumors above the cutoff, but <50%)	B (>= 20% of tumors above the cutoff, but <50%)	C (>=5% of tumors above the cutoff, but <20%)	B (>= 20% of tumors above the cutoff, but <50%)	B (>= 20% of tumors above the cutoff, but <50%)	C (>=5% of tumors above the cutoff, but <20%)	B (>= 20% of tumors above the cutoff, but <50%)	C (>=5% of tumors above the cutoff, but <20%)	B (>= 20% of tumors above the cutoff, but <50%)	B (>= 20% of tumors above the cutoff, but <50%)	NSCLC, SCLC, UEC, BRCA	Presentation score BRCA (HLA-A*02; HLA-A*02 peptides, breast cancer (N = 17) vs panel of normal tissues (N = 262)): ++++; Presentation score NSCLC (HLA-A*02; HLA-A*02 peptides, non-small cell lung cancer (N = 90) vs panel of normal tissues (N = 262)): ++++; Presentation score SCLC (HLA-A*02; HLA-A*02 peptides, small cell lung cancer (N = 19) vs panel of normal tissues (N = 262)): ++++; Presentation score UEC (HLA-A*02; HLA-A*02 peptides, uterine cancer (N = 15) vs panel of normal tissues (N = 262)): ++++; Peptide Presentation on cancer entities (HLA-A*02; Table 13B, presentation on additional cancer entities): OC, UBC, BRCA
89: peptide found in COG8 (gene looked up) (QLAPVFQRV; listed as Homo sapiens) [compound 89]	A (>=50% of tumors above the cutoff)	A (>=50% of tumors above the cutoff)	A (>=50% of tumors above the cutoff)	A (>=50% of tumors above the cutoff)	A (>=50% of tumors above the cutoff)	A (>=50% of tumors above the cutoff)	A (>=50% of tumors above the cutoff)	A (>=50% of tumors above the cutoff)	A (>=50% of tumors above the cutoff)	A (>=50% of tumors above the cutoff)	A (>=50% of tumors above the cutoff)	A (>=50% of tumors above the cutoff)	A (>=50% of tumors above the cutoff)	A (>=50% of tumors above the cutoff)	A (>=50% of tumors above the cutoff)	A (>=50% of tumors above the cutoff)	A (>=50% of tumors above the cutoff)	A (>=50% of tumors above the cutoff)	CLL, OC, NHL	Target coverage: over-expression category of source gene, LAML (source genes (mRNA); Acute Myeloid Leukemia (N = 173), cutoff more than 2-fold above highest 75% percentile of normal tissue samples): A (>=50% of tumors above the cutoff); Target coverage: over-expression category of source gene, KIRC (source genes (mRNA); Clear cell kidney carcinoma (N = 534), cutoff more than 2-fold above highest 75% percentile of normal tissue samples): A (>=50% of tumors above the cutoff); Target coverage: over-expression category of source gene, GBM (source genes (mRNA); Glioblastoma multiforme (N = 169), cutoff more than 2-fold above highest 75% percentile of normal tissue samples): A (>=50% of tumors above the cutoff); Target coverage: over-expression category of source gene, LIHC (source genes (mRNA); Liver hepatocellular carcinoma (N = 374), cutoff more than 2-fold above highest 75% percentile of normal tissue samples): A (>=50% of tumors above the cutoff); Presentation score CLL (HLA-A*02; HLA-A*02 peptides, chronic lymphocytic leukemia (N = 17) vs panel of normal tissues (N = 262)): ++++; Presentation score NHL (HLA-A*02; HLA-A*02 peptides, non-Hodgkin lymphoma (N = 18) vs panel of normal tissues (N = 262)): ++++; Presentation score OC (HLA-A*02; HLA-A*02 peptides, ovarian cancer (N = 20) vs panel of normal tissues (N = 262)): ++++

For some assays here: For expression read-outs the peptide stands for its source gene, whose mRNA was measured; the gene is not named for every peptide.
